According to PubChem BioAssay AID2685 (National Center for Advancing Translational Sciences (NCATS), 2010):
Hit rate of the full screen: of about 320,000 compounds, about 2,100 (0.66%) were called active. Inconclusive means that the source gave no clear call. Such entries were picked first, then a sample of the others. The call rests on the fitted dose curve; in most records, active means well fitted inhibition curve with a large enough effect in the signal ratio, with a control signal flat (not every such curve was filed as active); inconclusive means small, poorly fitted or top-dose-only effect, or effect the other way, or a change in a side signal; inactive means flat fitted curve, though single readings scatter; the % refers to the signal ratio. Where the call is inconclusive, the potency comes from a doubtful curve fit.

Experiment: qHTS Assay for Lipid Storage Modulators in Drosophila S3 Cells
Details: BODIPY lipid droplet fluorescence, 18-24 h, cells fed with added oleic acid; lipid storage change, negative = inhibition: at 46.1 µM (top of the series) unless noted
Procedure, shortened: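 Laser-scanning cytometry quantifies lipid droplet accumulation (500–530 nm total intensity; droplet/cell object ratio) in oleic acid-fed (400 uM added) Drosophila S3 cells treated with a concentration series. 20 uM Triacsin C defined 100% inhibition.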
On the % scale 0 is the no-effect control and ±100 the full control effect; potency means the concentration at half of the fitted maximal effect.

Structure (SMILES) | lipid storage change, negative = inhibition | Potency
CC1CC(C)CN(C(=O)COC(=O)C2CCN(S(=O)(=O)c3ccc4c(c3)OCCO4)CC2)C1 (stereo not drawn) | inconclusive: 32.5% | –
Cc1c(CN2CCN(c3cccc(C(F)(F)F)c3)CC2)c(=O)n(-c2ccccc2)n1C | inconclusive: 23.1% | –
Cc1ccc(-n2[nH]c(C)c(/C=N/NC(=O)c3ccc([N+](=O)[O-])cc3)c2=O)c(C)c1 | – | inconclusive: 6.51 µM [activator, single point]
CC(C)CC(=O)N/C(N)=N/c1nc2ccccc2s1 | inconclusive: -9.89% | –
COc1ccc2oc(C(=O)N(C)Cc3ccc(OC(F)F)cc3)c(C)c2c1 | inconclusive: 36.1% | –
CNS(=O)(=O)c1cccc(C(=O)OCC(=O)N2CCc3ccccc3C2)c1 | – | inconclusive: 0.0041 µM [falling, full curve, poor fit]
O=C(COC(=O)CCNS(=O)(=O)c1ccccc1)NNC(=O)c1ccccc1 | inconclusive | –
CC(O)CNC(=O)c1ccc(-c2nn(C)c(=O)c3ccccc23)cc1 (stereo not drawn) | – | inconclusive: 32.6 µM [activator, single point]
CC(Sc1nnc(C2CC2)n1C1CC1)C(=O)Nc1ccccc1C#N (stereo not drawn) | inconclusive: -3.03% | –
O=C(CSc1nccn1-c1ncc(C(F)(F)F)cc1Cl)c1ccc(Cl)cc1 | inconclusive: -42.4% | –
CC(C)n1cnc2c(Nc3cccc(F)c3)nc(NCCO)nc21 | inconclusive: 1.6% | –
CC(=O)NC(=S)Nc1ccc(NC(=O)c2cccs2)cc1 | inconclusive: -29.4% | –
CCOC(=O)Nc1ccc2nc(Sc3ccc(Cl)cc3)sc2c1 | – | inconclusive: 1.3 µM [activator, full curve]
CCOC(=O)C(O)(C1C(=O)CC(C)(C)CC1=O)C(F)(F)F (stereo not drawn) | – | inconclusive: 25.9 µM [falling, partial curve, poor fit]
COc1cccc(-n2c(=O)c3cc(OC)c(OC)cc3n(CC(=O)Nc3cc(C)[nH]n3)c2=O)c1 | inconclusive: 32.8% | –
CC(=O)c1ccc(N2CCN(C(=O)c3c(-c4ccccc4Cl)noc3C)CC2)cc1 | inconclusive: 14.4% | –
CCOC(=O)N1CCN(C(=O)COC(=O)COc2c(C)cc(C)cc2C)CC1 | – | inconclusive: 13 µM [activator, partial curve]
COc1ccccc1CNC(=O)Cn1nc(C(F)(F)F)cc1C | inconclusive: 16.9% | –
COc1cccc(CN2CC(C(=O)NCCc3ccc(C)o3)CCC2=O)c1 (stereo not drawn) | – | inconclusive: 4.11 µM [activator, full curve, poor fit]
CSc1nc2sc3c(c2c(=O)[nH]1)CCCC3 | inconclusive: 26.4% | –
Cc1ccc(C)c(OCc2nc3ccccc3[nH]2)c1 | inconclusive: -7.15% | –
O=C(c1ccc2ncsc2c1)N1CCN(c2cccc(C(F)(F)F)c2)CC1 | inconclusive | –
CC(C)N1C(=O)S/C(=C/c2ccccc2OCc2ccc(C(=O)O)cc2)C1=O | inconclusive: -12.4% | –
COc1ccccc1N1CCN(C(=O)c2cc(=O)c3cc(C)ccc3o2)CC1 | inconclusive: 14.4% | –
Cc1c(Cc2ccccc2)c(=O)oc2c(C)c(OCC(=O)NCc3ccccn3)ccc12 | inconclusive: -37.4% | –
Cc1ccc(NC(=O)COC(=O)c2cccnc2Cl)cc1S(=O)(=O)N1CCCCC1 | inconclusive: -9.93% | –

Structure (SMILES) | lipid storage change, negative = inhibition | Potency
NC(=O)c1sc2nccc(Nc3ccccc3)c2c1N | inconclusive: -26.7% | –
CCNC(=S)N/N=C/c1ccc(-c2ccccc2)o1 | inconclusive: 23.5% | –
Cc1ccc(NS(=O)(=O)c2cccc(C(=O)NN3CCOCC3)c2)cc1 | inconclusive: -22.1% | –
CCOc1ccccc1NS(=O)(=O)c1ccc(OC)c(OC)c1 | inactive: 3.17% | –
Cc1ccc(-c2nn[nH]n2)o1 | inconclusive: 48.9% | –
O=C(COc1ccc(F)cc1)N1CCCc2ccccc21 | – | inconclusive: 6.51 µM [activator, single point]
O=C(CCCc1c[nH]c2ccccc12)Nc1ccc2ccccc2c1 | inconclusive: -10.8% | –
O=C(NCCc1csc(-c2cccnc2)n1)c1c(F)cccc1F | – | inconclusive: 3.26 µM [activator, single point]
CCn1nc(NC(=O)c2ccccn2)c2cc3cc(C)ccc3nc21 | – | inconclusive: 1.84 µM [activator, full curve]
CCCCOc1ccc(C(=O)Nc2ccc(C)cc2[N+](=O)[O-])cc1 | – | inconclusive: 6.51 µM [activator, single point]
COc1ccccc1CNC(=O)CSc1nnc2c(n1)[nH]c1ccc(F)cc12 | – | inconclusive: 0.517 µM [falling, full curve, poor fit]
Nc1ccc(C23CC4CC(CC(CO)(C4)C2)C3)cc1 | inconclusive: 8.75% | –
O=C(NC1CCCCCC1)C1CCN(S(=O)(=O)c2cnc[nH]2)CC1 | inconclusive: 4.39% | –
O=C(OCc1nnc(-c2ccccc2)o1)C1CCN(S(=O)(=O)c2cccs2)CC1 | – | inconclusive: 18.4 µM [activator, partial curve]
COc1cc(/C=N\NC(=O)c2cccc(Cl)c2)ccc1Oc1ccc([N+](=O)[O-])cn1 | inconclusive: -1.06% | –
c1cn2c(NC3CCCC3)c(-c3ccc(N4CCOCC4)cc3)nc2cn1 | inconclusive: 47.4% | –
Cc1ccc(C)c(OCCC(=O)OCC(=O)NCCc2ccc(S(N)(=O)=O)cc2)c1 | inconclusive: -100% | –
Cc1cc(C)c(NC(=O)CN(C)C(=O)c2ccc(OCc3ccccc3)cc2)c(C)c1 | – | inconclusive: 0.103 µM [falling, full curve, poor fit]
Cc1oc(=O)c(NC(=O)c2ccccc2)cc1C(N)=O | inconclusive: -41.2% | –
COC(=O)c1ccc(C2C(C(=O)c3cc4ccccc4o3)=C(O)C(=O)N2c2cc(C)on2)cc1 (stereo not drawn) | – | inconclusive: 25.9 µM [activator, single point]
O=c1oc2c3c4c(cc2c(C(F)(F)F)c1CCN1CCOCC1)CCCN4CCC3 | inconclusive: 24.1% | –
CC(NC(=O)c1ccc(C(F)(F)F)cc1)C(c1ccccc1)N1CCOCC1 (stereo not drawn) | inconclusive: 47.2% | –
C/C(CCC1CC(C)(C)OC1=O)=N\NC(N)=S (stereo not drawn) | inconclusive: -16.6% | –
CCOC(=O)Nc1sc2c(c1C(N)=O)CCC(C)C2 (stereo not drawn) | inconclusive: 36.7% | –
O=C(NNC(=O)C1CCN(S(=O)(=O)c2ccccc2)CC1)c1ccccc1O | inconclusive: 3.25% | –
CC1CCCN(CCOc2ccc(Br)cc2)C1 (stereo not drawn) | – | inconclusive: 3.26 µM [activator, full curve]

In another format: five of the compounds above
Structure (SMILES),"lipid storage change, negative = inhibition",Potency
COc1ccc2oc(C(=O)N(C)Cc3ccc(OC(F)F)cc3)c(C)c2c1,inconclusive: 36.1%,–
O=C(CSc1nccn1-c1ncc(C(F)(F)F)cc1Cl)c1ccc(Cl)cc1,inconclusive: -42.4%,–
CC(=O)NC(=S)Nc1ccc(NC(=O)c2cccs2)cc1,inconclusive: -29.4%,–
CCOC(=O)Nc1ccc2nc(Sc3ccc(Cl)cc3)sc2c1,–,"inconclusive: 1.3 µM [activator, full curve]"
COc1ccccc1N1CCN(C(=O)c2cc(=O)c3cc(C)ccc3o2)CC1,inconclusive: 14.4%,–

Going on with the list.

Structure (SMILES) | lipid storage change, negative = inhibition | Potency
N#C/C(=C1/CCCCCN1)c1nnc2n1CCCCC2 | inconclusive: 19.6% | –
O=c1c(Cc2c(F)cccc2Cl)c(O)ccn1CCCn1ccnc1 | inconclusive: -5.36% | –
CCOC(=O)c1ccc(N=c2sc(C(=O)OC)cc(=O)n2-c2ccc(C(=O)OCC)cc2)cc1 | – | inconclusive: 32.6 µM [falling, partial curve]
COc1ccc(NS(=O)(=O)c2ccc(C)c(NC(=O)CN3C(=O)NC4(CCCC4)C3=O)c2)cc1 | inconclusive: 6.25% | –
Cc1ccc(/C=N/NC(=O)c2cc(C)oc2C)cc1 | inconclusive: 6.28% | –
CC(C)=CCCC1=CCC(/C=N/NC(N)=O)C(C)C1 (stereo not drawn) | inconclusive: -20.5% | –
CCOC(=O)C1=C(C)NC(C)=C(C(=O)OCC)C1c1cn(-c2ccccc2)nc1-c1ccco1 | – | inconclusive: 0.82 µM [activator, full curve]
O=C(NCCc1ccccc1)c1ccc2[nH]c(=O)c(=O)[nH]c2c1 | inconclusive: 17.7% | –
CCN(CC)c1ccc(NC(=O)COC(=O)Cc2ccsc2)cc1 | inconclusive | –
Cc1cn(C(=O)CN2C(=O)c3ccccc3C2=O)c(C)n1 | inconclusive: -5.11% | –
NC(=O)c1cccn1-c1ncc(C(F)(F)F)cc1Cl | inconclusive: -1.79% | –
CCOC(=O)N1CCN(c2ccc(C(=O)CC)cc2F)CC1 | inconclusive: -8% | –
CC(C)(C)c1ccc(C(=O)NCc2nnc(SCC(=O)NC3CCCCC3)o2)cc1 | inconclusive: -84% | –
CN1CCN(c2ccc(C(CC(N)=O)NC(=O)c3ccccc3)cc2[N+](=O)[O-])CC1 (stereo not drawn) | inconclusive: -15.2% | –
CNc1ncnc2c1ncn2[C@@H]1O[C@H](CO)[C@@H](O)[C@H]1O | inconclusive: 30.4% | –
O=C(c1cc(-c2ccc(Cl)cc2)on1)N1CCN(c2ccc(F)cc2)CC1 | – | active: 20.6 µM
COc1ccc2c(c1)C(NC(=O)C(F)(F)F)CC2=O (stereo not drawn) | inconclusive: -35.1% | –
CCCCCCCNC(=O)c1cc(-c2ccncc2)nc2ccccc12 | inconclusive: -20.3% | –
CCOC(=O)C1CCCN(C(=O)/C(=C/c2ccco2)NC(=O)c2ccccc2)C1 (stereo not drawn) | inconclusive: -11.8% | –
COc1ccc(N2CCN(C(=O)c3cc4c(-c5cccc(OC)c5)nn(C)c4s3)CC2)cc1 | – | inconclusive: 0.259 µM [activator, partial curve, poor fit]
C=CCSc1nc2[nH]ncc2c(=O)[nH]1 | inconclusive: 14.2% | –
CC1=CCC2C(=O)N(c3cccc(C(=O)N(C)C4CCCCC4)c3)C(=O)C2C1 (stereo not drawn) | inconclusive: -30.4% | –
CCOc1ccc(NS(=O)(=O)c2ccc(C(=O)NCC(C)(C)N3CCOCC3)cc2)cc1 | inconclusive: 13.9% | –
CCOC(=O)c1ccc(NC(=O)Cn2nnc3ccccc32)cc1 | inconclusive: 55.5% | –
COc1ccc(C(=O)NCCCNC(=O)c2ccccn2)cc1Br | inconclusive: 340% | –
O=C(COC(=O)c1cc(-c2ccccc2)nc2ccccc12)NCC1CCCO1 (stereo not drawn) | inconclusive: 28.2% | –
